Data from the supplement of paper PMC10849652.
The list shows a part of the results.

Amino acid sequences for entries named in this document (tags omitted). A change or cut given only in a name is not applied to a line headed by its entry.
UniProt Q8TCD6: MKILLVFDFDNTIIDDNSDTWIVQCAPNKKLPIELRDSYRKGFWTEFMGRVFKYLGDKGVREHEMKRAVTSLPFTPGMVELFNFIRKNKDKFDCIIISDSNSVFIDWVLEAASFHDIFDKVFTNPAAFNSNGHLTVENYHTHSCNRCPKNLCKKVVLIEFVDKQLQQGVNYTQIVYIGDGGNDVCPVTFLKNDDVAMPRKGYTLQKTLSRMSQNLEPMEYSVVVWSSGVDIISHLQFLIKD
UniProt P46020: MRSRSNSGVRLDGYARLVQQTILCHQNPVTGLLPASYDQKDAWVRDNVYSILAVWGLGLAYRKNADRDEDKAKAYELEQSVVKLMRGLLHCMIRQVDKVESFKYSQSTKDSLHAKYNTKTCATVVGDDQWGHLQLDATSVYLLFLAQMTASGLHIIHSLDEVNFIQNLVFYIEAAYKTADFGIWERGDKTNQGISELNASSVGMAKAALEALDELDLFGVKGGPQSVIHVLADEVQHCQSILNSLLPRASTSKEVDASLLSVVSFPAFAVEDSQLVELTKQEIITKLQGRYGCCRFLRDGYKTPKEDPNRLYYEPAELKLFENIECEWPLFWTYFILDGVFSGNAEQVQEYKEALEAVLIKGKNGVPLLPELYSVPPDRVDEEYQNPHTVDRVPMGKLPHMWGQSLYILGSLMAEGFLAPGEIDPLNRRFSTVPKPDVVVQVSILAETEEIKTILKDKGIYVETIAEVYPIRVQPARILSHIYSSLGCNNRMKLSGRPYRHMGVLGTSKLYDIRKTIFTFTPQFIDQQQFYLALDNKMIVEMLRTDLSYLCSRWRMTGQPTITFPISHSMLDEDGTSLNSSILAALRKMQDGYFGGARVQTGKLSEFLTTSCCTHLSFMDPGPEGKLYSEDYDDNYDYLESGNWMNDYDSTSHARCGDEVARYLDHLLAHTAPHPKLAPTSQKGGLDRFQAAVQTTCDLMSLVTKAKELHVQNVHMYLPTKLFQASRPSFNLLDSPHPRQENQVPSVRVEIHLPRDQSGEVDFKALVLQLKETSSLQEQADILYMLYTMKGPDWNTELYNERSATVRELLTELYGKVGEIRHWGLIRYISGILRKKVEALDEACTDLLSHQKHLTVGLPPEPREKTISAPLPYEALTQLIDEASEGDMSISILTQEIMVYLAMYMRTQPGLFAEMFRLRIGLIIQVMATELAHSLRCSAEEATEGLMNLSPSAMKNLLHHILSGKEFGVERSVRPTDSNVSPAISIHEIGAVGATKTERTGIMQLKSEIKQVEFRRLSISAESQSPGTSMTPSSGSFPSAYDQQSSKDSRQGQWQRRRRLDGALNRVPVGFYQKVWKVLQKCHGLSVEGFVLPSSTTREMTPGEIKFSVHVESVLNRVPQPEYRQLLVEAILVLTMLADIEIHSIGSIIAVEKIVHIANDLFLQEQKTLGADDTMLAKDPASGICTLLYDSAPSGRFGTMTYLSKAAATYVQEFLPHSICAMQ
UniProt P55347: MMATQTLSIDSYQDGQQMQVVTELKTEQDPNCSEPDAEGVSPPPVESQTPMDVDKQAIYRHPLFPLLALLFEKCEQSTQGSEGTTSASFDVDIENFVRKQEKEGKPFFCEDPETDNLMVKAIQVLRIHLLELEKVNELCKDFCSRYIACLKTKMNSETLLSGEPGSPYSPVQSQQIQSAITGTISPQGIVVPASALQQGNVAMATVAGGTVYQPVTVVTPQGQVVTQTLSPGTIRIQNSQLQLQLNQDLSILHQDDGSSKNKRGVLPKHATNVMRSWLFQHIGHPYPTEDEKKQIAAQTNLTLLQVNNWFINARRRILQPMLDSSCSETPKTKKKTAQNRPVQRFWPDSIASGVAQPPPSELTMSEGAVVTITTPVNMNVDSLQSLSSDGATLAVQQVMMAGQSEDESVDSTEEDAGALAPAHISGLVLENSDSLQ
UniProt Q8NHP8: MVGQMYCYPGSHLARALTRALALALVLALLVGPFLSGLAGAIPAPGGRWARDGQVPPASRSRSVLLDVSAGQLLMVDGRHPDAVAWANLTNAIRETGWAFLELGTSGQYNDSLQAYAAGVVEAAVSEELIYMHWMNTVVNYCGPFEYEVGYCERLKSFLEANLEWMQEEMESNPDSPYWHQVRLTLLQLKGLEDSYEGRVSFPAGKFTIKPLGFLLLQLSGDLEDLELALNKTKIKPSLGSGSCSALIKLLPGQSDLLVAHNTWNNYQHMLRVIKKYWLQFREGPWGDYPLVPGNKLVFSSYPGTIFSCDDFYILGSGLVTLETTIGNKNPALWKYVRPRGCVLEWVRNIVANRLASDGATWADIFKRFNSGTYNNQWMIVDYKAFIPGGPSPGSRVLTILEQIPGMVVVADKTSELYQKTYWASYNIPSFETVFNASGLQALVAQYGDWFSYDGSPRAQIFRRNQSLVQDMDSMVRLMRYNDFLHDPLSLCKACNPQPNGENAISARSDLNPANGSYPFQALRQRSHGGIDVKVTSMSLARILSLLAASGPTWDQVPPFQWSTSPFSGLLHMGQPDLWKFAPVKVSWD
UniProt Q6PCE3: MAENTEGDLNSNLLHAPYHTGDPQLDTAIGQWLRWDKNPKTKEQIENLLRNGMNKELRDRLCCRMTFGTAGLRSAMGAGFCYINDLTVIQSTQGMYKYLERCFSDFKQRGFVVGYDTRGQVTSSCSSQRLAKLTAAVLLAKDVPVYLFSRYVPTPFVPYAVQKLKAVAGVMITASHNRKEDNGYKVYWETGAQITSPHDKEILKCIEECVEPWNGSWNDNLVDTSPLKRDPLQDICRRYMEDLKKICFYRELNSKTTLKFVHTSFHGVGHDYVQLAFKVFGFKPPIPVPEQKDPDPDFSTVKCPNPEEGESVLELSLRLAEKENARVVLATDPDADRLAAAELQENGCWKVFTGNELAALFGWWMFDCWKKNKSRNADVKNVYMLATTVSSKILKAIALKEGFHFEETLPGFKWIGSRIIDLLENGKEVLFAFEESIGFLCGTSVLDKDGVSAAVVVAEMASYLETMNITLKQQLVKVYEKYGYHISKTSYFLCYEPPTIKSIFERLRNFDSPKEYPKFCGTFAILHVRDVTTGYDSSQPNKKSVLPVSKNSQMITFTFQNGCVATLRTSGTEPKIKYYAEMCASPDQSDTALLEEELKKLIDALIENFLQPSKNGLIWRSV
UniProt P11309, whole entry, looked up: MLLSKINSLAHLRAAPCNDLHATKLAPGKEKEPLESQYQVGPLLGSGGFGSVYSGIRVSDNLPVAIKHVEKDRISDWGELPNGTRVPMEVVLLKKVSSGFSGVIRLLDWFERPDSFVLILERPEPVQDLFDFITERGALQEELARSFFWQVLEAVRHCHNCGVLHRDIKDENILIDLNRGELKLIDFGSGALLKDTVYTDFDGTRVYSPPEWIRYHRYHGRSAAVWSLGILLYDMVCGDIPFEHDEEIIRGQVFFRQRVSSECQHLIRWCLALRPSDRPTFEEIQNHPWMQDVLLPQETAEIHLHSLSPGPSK
UniProt Q93100: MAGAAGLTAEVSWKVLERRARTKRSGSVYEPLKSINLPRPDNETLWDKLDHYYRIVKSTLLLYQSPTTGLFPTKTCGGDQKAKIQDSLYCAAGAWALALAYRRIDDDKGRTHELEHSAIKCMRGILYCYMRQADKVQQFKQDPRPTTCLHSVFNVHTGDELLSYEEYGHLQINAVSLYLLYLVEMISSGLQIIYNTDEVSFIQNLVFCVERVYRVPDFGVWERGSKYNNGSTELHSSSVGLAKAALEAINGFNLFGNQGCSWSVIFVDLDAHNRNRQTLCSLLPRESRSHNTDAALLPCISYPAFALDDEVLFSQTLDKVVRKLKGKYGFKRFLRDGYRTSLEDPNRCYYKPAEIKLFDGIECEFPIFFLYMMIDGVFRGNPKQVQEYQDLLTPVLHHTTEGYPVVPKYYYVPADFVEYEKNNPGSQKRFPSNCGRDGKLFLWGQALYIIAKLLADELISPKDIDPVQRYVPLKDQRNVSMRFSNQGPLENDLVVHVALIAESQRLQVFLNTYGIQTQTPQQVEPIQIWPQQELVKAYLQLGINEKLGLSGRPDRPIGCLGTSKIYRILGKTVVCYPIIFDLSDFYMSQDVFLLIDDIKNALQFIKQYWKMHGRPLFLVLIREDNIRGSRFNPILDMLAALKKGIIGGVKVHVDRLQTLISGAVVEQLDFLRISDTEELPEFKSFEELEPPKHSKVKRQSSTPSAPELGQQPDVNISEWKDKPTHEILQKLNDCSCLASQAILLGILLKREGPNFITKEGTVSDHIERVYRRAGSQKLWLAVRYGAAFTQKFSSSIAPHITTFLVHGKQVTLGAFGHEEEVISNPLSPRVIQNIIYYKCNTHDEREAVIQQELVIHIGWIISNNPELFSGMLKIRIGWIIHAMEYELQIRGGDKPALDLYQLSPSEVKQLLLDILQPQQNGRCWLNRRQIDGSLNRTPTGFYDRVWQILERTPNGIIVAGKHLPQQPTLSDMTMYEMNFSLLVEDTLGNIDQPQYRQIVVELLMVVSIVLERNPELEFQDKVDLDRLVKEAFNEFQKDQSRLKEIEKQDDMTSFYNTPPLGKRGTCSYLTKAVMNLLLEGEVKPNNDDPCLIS
UniProt Q9H814, whole entry, looked up: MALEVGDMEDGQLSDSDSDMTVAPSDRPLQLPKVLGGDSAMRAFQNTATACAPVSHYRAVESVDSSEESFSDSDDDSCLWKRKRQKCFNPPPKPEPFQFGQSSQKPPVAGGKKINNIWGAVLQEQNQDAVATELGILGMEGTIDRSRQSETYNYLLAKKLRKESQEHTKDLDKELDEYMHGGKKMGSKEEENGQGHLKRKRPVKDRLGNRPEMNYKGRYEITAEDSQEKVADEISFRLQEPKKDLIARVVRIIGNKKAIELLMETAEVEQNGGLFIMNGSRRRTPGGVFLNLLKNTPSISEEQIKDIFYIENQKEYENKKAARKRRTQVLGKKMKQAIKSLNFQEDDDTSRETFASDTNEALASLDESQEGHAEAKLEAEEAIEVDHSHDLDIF
UniProt Q9H8W4: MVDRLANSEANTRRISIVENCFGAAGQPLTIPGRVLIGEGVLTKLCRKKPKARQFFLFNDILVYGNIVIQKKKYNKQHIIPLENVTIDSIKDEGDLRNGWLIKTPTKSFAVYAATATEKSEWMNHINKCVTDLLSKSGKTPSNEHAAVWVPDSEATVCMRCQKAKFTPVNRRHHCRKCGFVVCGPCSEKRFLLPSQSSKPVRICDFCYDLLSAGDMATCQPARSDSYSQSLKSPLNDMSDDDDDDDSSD
UniProt O00329: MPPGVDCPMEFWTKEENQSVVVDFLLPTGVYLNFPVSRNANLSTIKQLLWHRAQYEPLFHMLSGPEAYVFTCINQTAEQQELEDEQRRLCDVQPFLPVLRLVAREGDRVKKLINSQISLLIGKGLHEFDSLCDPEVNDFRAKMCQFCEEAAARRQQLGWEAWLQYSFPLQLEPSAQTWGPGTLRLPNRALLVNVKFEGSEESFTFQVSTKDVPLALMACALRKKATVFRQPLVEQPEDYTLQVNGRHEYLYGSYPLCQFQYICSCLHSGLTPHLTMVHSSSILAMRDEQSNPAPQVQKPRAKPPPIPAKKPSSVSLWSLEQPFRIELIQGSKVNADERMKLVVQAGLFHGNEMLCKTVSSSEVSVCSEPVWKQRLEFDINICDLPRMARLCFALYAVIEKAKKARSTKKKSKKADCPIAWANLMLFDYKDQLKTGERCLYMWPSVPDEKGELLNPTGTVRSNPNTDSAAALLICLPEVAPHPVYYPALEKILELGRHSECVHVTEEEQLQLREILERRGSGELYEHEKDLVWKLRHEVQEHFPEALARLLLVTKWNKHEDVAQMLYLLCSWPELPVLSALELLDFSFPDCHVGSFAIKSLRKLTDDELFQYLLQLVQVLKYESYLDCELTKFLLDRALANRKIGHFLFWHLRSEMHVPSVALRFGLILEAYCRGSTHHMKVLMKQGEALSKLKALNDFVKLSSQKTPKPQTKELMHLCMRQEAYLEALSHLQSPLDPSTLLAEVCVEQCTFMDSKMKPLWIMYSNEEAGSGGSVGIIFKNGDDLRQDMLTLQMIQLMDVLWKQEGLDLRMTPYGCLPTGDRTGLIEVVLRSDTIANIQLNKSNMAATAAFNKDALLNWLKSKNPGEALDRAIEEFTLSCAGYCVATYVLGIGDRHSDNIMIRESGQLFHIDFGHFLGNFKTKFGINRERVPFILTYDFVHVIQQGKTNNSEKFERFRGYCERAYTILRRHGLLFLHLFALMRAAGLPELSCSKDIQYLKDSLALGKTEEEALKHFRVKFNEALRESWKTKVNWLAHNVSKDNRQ
UniProt Q8N4L2: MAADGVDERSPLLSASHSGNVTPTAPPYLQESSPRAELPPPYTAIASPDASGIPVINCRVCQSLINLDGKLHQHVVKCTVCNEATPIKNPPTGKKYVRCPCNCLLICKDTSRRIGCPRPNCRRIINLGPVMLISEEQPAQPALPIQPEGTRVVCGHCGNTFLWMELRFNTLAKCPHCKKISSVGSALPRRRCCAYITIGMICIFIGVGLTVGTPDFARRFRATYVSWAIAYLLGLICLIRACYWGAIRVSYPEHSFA

Experiments:
Experiment in all cases: log2 fold change, soluble protein after heating vs DMSO (PISA); higher = thermal stabilisation; K562 lysate, 10 uM; active = over 0.2 and 3.5 SD of the protein, either way, in both replicates (recomputed)
[1] = compound: C#Cc1cccc(Nc2ncnc3cc(OCCOC)c(OCCOC)cc23)c1 [erlotinib]
Outline: (§1)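 A 30 min treatment with 10 μM compound was applied to crude K562 extract at 1 mg/mL protein in PBS pH 7.4 with 1 mM MgCl2. Heating for 3 min spanned 48°C-58°C, after which aliquots were pooled, adjusted to 0.5% NP-40 at 4°C and spun at 21,000xg for 90 min. TMTpro 16plex LC-MS/MS of the supernatant, with channel sums equalised, gave values recorded as log-two fold change in thermal stability against solvent controls, from duplicates.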

[2] = compound: C/C(=N\NC(=O)C1=CC(=CC=C1)S(=O)(=O)N2CCOCC2)/C3=C(C=CC(=C3)Cl)O
Outline: as §1

[3] = compound: C1=CC(=CC=C1C2=NC3=C(N2)C=C(C=C3)C(=O)N)OC4=CC=C(C=C4)Cl
Outline: as §1

[4] = compound: C1=CC2=C(C=CC(=C2)/C=C\3/C(=O)NC(=NCC4=CC=CS4)S3)N=C1
Outline: as §1

[5] = compound: C1=CC2=NC=CN=C2C=C1/C=C/3\C(=O)NC(=O)S3
Outline: as §1

[6] = compound: C1=CC=C(C=C1)C2=NC(=C(N2)C3=CC=NC=C3)C4=CC(=C(C=C4)Cl)O
Outline: as §1

[7] = compound: C1=CC=C2C(=C1)C3=NNC4=CC=CC(=C43)C2=O
Outline: as §1

[8] = compound: C1CCN(C1)C(=O)NC2=CC=CC(=C2)NC3=NC=C(C(=N3)NCCC4=CN=CN4)Br
Outline: as §1

[9] = compound: C1CN(CCC1(CC2=CC=C(C=C2)Cl)N)C3=NC=NC4=C3C=CN4
Outline: as §1

[10] = compound: C1COCCN1CCN2C3=CC=CC=C3N=C2NC(=O)C4=CC(=CC=C4)[N+](=O)[O-] [IRAK-1-4 Inhibitor I]
Outline: as §1

[11] = compound: C=CC(=O)N1CCC[C@@H](n2nc(-c3ccc(Oc4ccccc4)cc3)c3c(N)ncnc32)C1 [ibrutinib]
Outline: as §1

[12] = compound: CC(=O)c1cnc2ccc(-c3cc(Cl)c(O)c(Cl)c3)nc2c1N[C@H]1CC[C@H](CN(C)C)CC1
Outline: as §1

[13] = compound: CC(C)(C)Cn1c(N)nc2ccc(-c3[nH]c(C(C)(C)C)nc3-c3ccc(F)cc3)nc21 [ralimetinib]
Outline: as §1

[14] = compound: CC(C)(O)CC(=O)NCCn1ccc2ncnc(Nc3ccc(Oc4cccc(C(F)(F)F)c4)c(Cl)c3)c21
Outline: as §1

[15] = compound: CC(C)C1=C2N=C(C=C(N2N=C1)NCC3=CC=CC=C3)NCCCCCCN
Outline: as §1

[16] = compound: CC1=C(C(CC(=O)N1)C2=CC=C(C=C2)C(F)(F)F)C(=O)NC3=C(C=C4C(=C3)C=NN4)F
Outline: as §1

[17] = compound: CC1=C(C2=C(C=C1)C(=O)C3=CC=CC=C3N2CCCN)C
Outline: as §1

[18] = compound: CC1=C(C=C(C=C1)NC(=O)C2=CC(=CC=C2)C(C)(C)C#N)NC3=CC4=C(C=C3)N=CN(C4=O)C
Outline: as §1

[19] = compound: CC1=C(C=C(C=C1)NC(=O)C2=CC(=CC=C2)N(C)C)NC(=O)C3=CC=C(C=C3)O
Outline: as §1

[20] = compound: CC1=CC=C(C=C1)SC2=C3C=C(SC3=CN=C2)C(=O)N
Outline: as §1

Measured: log2 fold change

PHOSPHO2 (UniProt Q8TCD6)
inactive: [1] -0.018 | [2] -0.225 | [3] 0.046 | [4] -0.032 | [5] -0.027 | [6] -0.002 | [7] 0.072 | [8] 0.224 | [9] -0.16 | [10] -0.014 | [11] -0.01 | [12] 0.039 | [13] 0.003 | [14] 0.035 | [15] 0.012 | [16] -0.017 | [17] 0.018 | [18] 0.006 | [19] 0.048 | [20] 0.056

PHKA1 (UniProt P46020)
inactive: [1] -0.011 | [2] 0.003 | [3] -0.015 | [4] 0.063 | [5] 0.078 | [6] -0.027 | [7] 0.205 | [8] 0.05 | [9] 0.026 | [10] 0.01 | [11] -0.045 | [12] 0.012 | [13] 0.03 | [14] -0.031 | [15] -0.053 | [16] 0.004 | [17] -0.019 | [18] -0.005 | [19] 0.032 | [20] 0.003

PKNOX1 (UniProt P55347)
inactive: [1] 0.047 | [2] -0.078 | [3] 0.041 | [4] 0.07 | [5] -0.055 | [6] 0.078 | [7] -0.016 | [8] -0.036 | [9] 0.021 | [10] 0.014 | [11] -0.079 | [12] -0.021 | [13] -0.015 | [14] 0.029 | [15] -0.023 | [16] 0.149 | [17] -0.042 | [18] 0.078 | [19] -0.056 | [20] -0.037

PIGM (UniProt Q9H3S5)
inactive: [1] 0.378 | [2] -0.25 | [3] 0.048 | [4] 0.064 | [5] 0.034 | [6] 0.33 | [7] -0.032 | [8] -0.022 | [9] 0.07 | [10] -0.072 | [11] 0.116 | [12] 0.098 | [13] 0.051 | [14] -0.132 | [15] 0.028 | [18] 0.002 | [19] 0.082 | [20] -0.005

2 successive records already listed:
PHKA1 (UniProt P46020)
inactive: [1] -0.011 | [2] 0.003 | [3] -0.015 | [4] 0.063 | [5] 0.078 | [6] -0.027 | [7] 0.205 | [8] 0.05 | [9] 0.026 | [10] 0.01 | [11] -0.045 | [12] 0.012 | [13] 0.03 | [14] -0.031 | [15] -0.053 | [16] 0.004 | [17] -0.019 | [18] -0.005 | [19] 0.032 | [20] 0.003

PKNOX1 (UniProt P55347)
inactive: [1] 0.047 | [2] -0.078 | [3] 0.041 | [4] 0.07 | [5] -0.055 | [6] 0.078 | [7] -0.016 | [8] -0.036 | [9] 0.021 | [10] 0.014 | [11] -0.079 | [12] -0.021 | [13] -0.015 | [14] 0.029 | [15] -0.023 | [16] 0.149 | [17] -0.042 | [18] 0.078 | [19] -0.056 | [20] -0.037

More records

PLBD2 (UniProt Q8NHP8)
inactive: [1] -0.022 | [2] 0.024 | [3] 0.001 | [4] -0.058 | [5] -0.036 | [6] 0.021 | [7] 0.028 | [8] 0.045 | [9] 0 | [10] 0.007 | [11] 0.036 | [12] -0.043 | [13] 0.022 | [14] -0.044 | [15] 0.413 | [16] -0.025 | [17] -0.004 | [18] -0.033 | [19] -0.004 | [20] 0.005

PGM2L1 (UniProt Q6PCE3)
inactive: [1] -0.042 | [2] -0.027 | [3] 0.022 | [4] 0.021 | [5] -0.017 | [6] 0.018 | [7] -0.003 | [8] 0.002 | [9] 0.034 | [10] 0 | [11] -0.025 | [12] -0.025 | [13] -0.003 | [14] -0.05 | [15] -0.036 | [16] 0 | [17] -0.034 | [18] 0.001 | [19] 0.016 | [20] -0.002

PIGU (UniProt Q9H490)
inactive: [1] 0.023 | [2] 0.105 | [3] -0.11 | [4] 0.064 | [5] -0.027 | [6] -0.058 | [7] -0.068 | [10] 0.059 | [11] 0.026 | [12] 0.024 | [13] -0.005 | [14] -0.137 | [15] -0.071 | [16] 0.015 | [17] -0.195 | [18] 0.011 | [19] 0.048 | [20] 0.021

PLCL1 (UniProt Q15111)
inactive: [1] 0.043 | [2] -0.029 | [3] 0.013 | [4] -0.069 | [5] -0.044 | [6] -0.001 | [7] -0.074 | [8] -0.011 | [9] 0.05 | [10] 0.073 | [11] 0.027 | [12] -0.037 | [13] -0.015 | [14] -0.062 | [15] 0.001 | [16] 0.018 | [17] -0.087 | [18] 0.028 | [19] 0.041 | [20] 0.002

PHF10 (UniProt Q8WUB8)
inactive: [1] -0.009 | [2] 0.012 | [3] 0.056 | [4] -0.01 | [5] -0.022 | [6] 0.018 | [7] 0.049 | [8] -0.054 | [9] 0.046 | [10] 0.017 | [11] 0.011 | [12] -0.007 | [13] -0.015 | [14] 0.02 | [15] -0.005 | [16] 0.092 | [17] -0.007 | [18] 0 | [19] -0.062 | [20] 0.018

PIM1 isoform 2 (UniProt P11309)
inactive: [1] 0.118 | [2] -0.106 | [3] -0.164 | [4] 0.028 | [5] 0.238 | [6] 0.123 | [7] -0.034 | [8] -0.077 | [9] 0.02 | [10] -0.076 | [11] -0.138 | [13] 0.042 | [14] 0.122 | [15] -0.038 | [16] -0.014 | [17] 0.054 | [18] 0.01 | [19] 0.054

PHKB isoform 3 (UniProt Q93100)
inactive: [1] -0.053 | [2] -0.049 | [3] 0 | [4] 0.044 | [5] 0.082 | [6] 0.036 | [7] 0.142 | [8] 0.038 | [9] 0.01 | [10] 0.006 | [11] -0.004 | [12] 0.071 | [13] 0.008 | [14] -0.052 | [15] -0.003 | [16] 0.008 | [17] -0.069 | [18] -0.019 | [19] 0.022 | [20] -0.049

PHAX (UniProt Q9H814)
inactive: [1] -0.002 | [2] 0.009 | [3] 0.03 | [4] 0.025 | [5] -0.015 | [6] 0.029 | [7] -0.014 | [8] -0.028 | [9] 0.003 | [10] 0.01 | [11] 0.019 | [12] -0.008 | [13] -0.04 | [14] -0.031 | [15] -0.009 | [16] -0.004 | [17] 0.003 | [18] -0.014 | [19] -0.035 | [20] -0.026

PLEKHF2 (UniProt Q9H8W4)
inactive: [1] -0.037 | [2] -0.017 | [3] 0.089 | [4] 0.022 | [5] -0.048 | [6] 0 | [7] -0.047 | [8] -0.033 | [9] 0.003 | [10] -0.022 | [11] 0.033 | [12] -0.003 | [13] 0.008 | [14] -0.05 | [15] 0.051 | [16] 0.001 | [17] -0.053 | [18] 0.114 | [19] 0.099 | [20] -0.001

PIK3CD (UniProt O00329)
inactive: [1] -0.014 | [2] -0.162 | [3] -0.095 | [4] 0.034 | [5] 0.091 | [6] -0.031 | [7] 0.098 | [10] 0.109 | [11] -0.14 | [12] 0.222 | [13] -0.017 | [14] -0.123 | [15] -0.12 | [16] 0.021 | [17] -0.032 | [18] 0.04 | [19] 0.098 | [20] -0.056

PIP4P2 (UniProt Q8N4L2)
inactive: [1] 0.023 | [2] 0.039 | [3] -0.03 | [4] 0.032 | [5] -0.076 | [6] 0.019 | [7] -0.029 | [8] 0.034 | [9] 0.022 | [10] -0.054 | [11] 0.034 | [12] 0.138 | [13] -0.025 | [14] -0.023 | [15] -0.08 | [16] -0.015 | [17] -0.061 | [18] 0.013 | [19] 0.008 | [20] -0.096

PLCG2 (UniProt P16885)
inactive: [1] -0.003 | [2] 0.298 | [3] 0.081 | [4] -0.147 | [5] -0.055 | [6] -0.066 | [7] 0.045 | [8] -0.072 | [9] -0.059 | [10] 0.163 | [11] -0.008 | [12] -0.016 | [13] -0.163 | [14] -0.049 | [15] -0.058 | [16] -0.119 | [18] -0.011 | [19] 0.154 | [20] -0.037

PHACTR4 isoform 2 (UniProt Q8IZ21)
inactive: [1] 0.003 | [2] -0.02 | [3] 0.012 | [4] -0.004 | [5] -0.021 | [6] 0.021 | [7] 0.013 | [8] -0.017 | [9] 0.052 | [10] 0.011 | [11] -0.009 | [12] -0.005 | [13] -0.009 | [14] -0.047 | [15] -0.019 | [16] 0.025 | [17] -0.028 | [18] 0.021 | [19] -0.016 | [20] -0.01
